Results: PubChem BioAssay AID1487 (National Center for Advancing Translational Sciences (NCATS), 2009)
The other results are listed elsewhere or left out. Shown are side measurements of this screen, not its main read-out; they come without a call. The list favours compounds with an active or inconclusive main result. The note in brackets gives the kind of curve behind each potency; many fits are weak.

Assay: qHTS Assay for Modulators of Lamin A Splicing
Settings: HeLa LMNA splicing GFP/RFP minigene ratio, 48 h
Outline: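 Read-out is the ratio of GFP to DsRed2 object intensity, acquired by 488 nm laser-scanning cytometry on HeLa lamin A-EGFP minigene reporter cells. Compound incubation 48 hrs at 37 °C in Opti-MEM with 2% FBS; DMSO 0.5% final.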

[1] = measured here: GFP splicing reporter channel
[2] = measured here: RFP viability control channel

Nc1nc(Cl)nc2c1ncn2[C@@H]1O[C@H](COP(=O)(O)OP(=O)(O)OP(=O)(O)O)[C@H](O)[C@H]1O
AC50 [1]: 35.5 µM [falling, single point]
AC50 [2]: 1.78 µM [rising, partial curve]

O=C(NCCCNc1ccc(C(F)(F)F)cc1[N+](=O)[O-])c1ccc(Cl)cc1
AC50 [1]: 35.5 µM [rising, single point]
AC50 [2]: 35.5 µM [rising, single point]

COc1ccccc1C(=O)Nc1ccccc1OCc1cc(=O)n2ccccc2n1
AC50 [1]: 0.0282 µM [falling, full curve, poor fit]

NS(=O)(=O)c1ccc(NC(=S)Nc2ccc(F)c(F)c2)cc1
AC50 [1]: 31.6 µM [rising, single point]

COc1ccc(-c2nnc(SC(C(=O)c3c[nH]c4ccccc34)c3ccccc3)n2N)cc1OC (stereo unspecified)
AC50 [2]: 28.2 µM [rising, single point]

CSc1ccccc1-n1nnnc1SCc1ccccc1
AC50 [1]: 31.6 µM [rising, single point]
AC50 [2]: 22.4 µM [rising, single point]

COc1ccc([N+](=O)[O-])cc1NC(=O)C(C)N(C)Cc1cccc(OC)c1OC (stereo unspecified)
AC50 [2]: 2.51 µM [rising, partial curve, poor fit]

Cn1c(=O)cc(OCCCC(=O)NC2CCCC2)c2ccccc21
AC50 [2]: 11.2 µM [rising, partial curve]

O=C(NCCc1ccccc1)c1nc(-c2ccc(Cl)cc2)n2c1CCCCC2
AC50 [2]: 35.5 µM [rising, single point]

Cc1ccc(NC(=O)C2CCCN(S(=O)(=O)c3c(C)noc3C)C2)nc1 (stereo unspecified)
AC50 [1]: 35.5 µM [rising, single point]
AC50 [2]: 35.5 µM [rising, single point]

COc1cccc(N2CC(NC(=O)c3ccc(S(=O)(=O)N4CCOCC4)cc3)CC2=O)c1 (stereo unspecified)
AC50 [1]: 0.708 µM [falling, single point]

Cc1ccc(C2Nc3ccccc3-c3nc4ccccc4n32)o1 (stereo unspecified)
AC50 [1]: 31.6 µM [rising, single point]
AC50 [2]: 35.5 µM [rising, single point]

Cn1cc(C(=O)Nc2ccc3c(c2)CCC3)cn1
AC50 [2]: 22.4 µM [rising, single point]

O=C(c1ccccc1OCc1ccccc1Br)N1CCN(c2ncccn2)CC1
AC50 [2]: 14.1 µM [rising, partial curve]

CC1=C(C(=O)Nc2cccc(Cl)c2C)C2(CCCCCC2)OC1=O
AC50 [1]: 10 µM [rising, partial curve, poor fit]

Cc1cc(C)cc(N2C(=O)CC(Sc3ncn[nH]3)C2=O)c1 (stereo unspecified)
AC50 [1]: 1.26 µM [falling, full curve]

S=C(Nc1ccccc1)N1CCN(C2CCCCC2)CC1
AC50 [1]: 0.0398 µM [falling, full curve]
AC50 [2]: 0.0891 µM [falling, full curve]

Cc1cc(C(=O)C(C)Sc2cccc[n+]2[O-])c(C)n1-c1ccc(Cl)cc1 (stereo unspecified)
AC50 [2]: 35.5 µM [rising, single point]

Cc1sc(NC(=O)c2cc(-c3ccccc3)nc3ccccc23)c(C(N)=O)c1C
AC50 [2]: 14.1 µM [rising, partial curve]

Nc1ccc2c3c(cccc13)C(=O)NC2=O
AC50 [1]: 3.16 µM [rising, single point]

O=C(Nc1ccc(N2CCN(C(=O)c3ccccc3)CC2)c(Cl)c1)c1ccc(Br)o1
AC50 [1]: 35.5 µM [rising, single point]
AC50 [2]: 22.4 µM [rising, partial curve]

CCn1c(=O)c([N+](=O)[O-])c(NCC(O)c2ccccc2)c2ccccc21 (stereo unspecified)
AC50 [2]: 0.501 µM [rising, partial curve, poor fit]

CC(=O)Nc1ccc(-c2csc(NC(=O)Nc3ccccc3)n2)cc1
AC50 [2]: 0.01 µM [rising, full curve, poor fit]

CCN(CC)C1=CC(=[N+]2CCCC2)CC(C)(C)C1
AC50 [1]: 2.51 µM [rising, full curve]
AC50 [2]: 7.08 µM [rising, partial curve]

COc1ccccc1Nc1sc(C(=O)c2ccc(C)cc2C)c(N)c1S(=O)(=O)c1ccccc1
AC50 [2]: 1.78 µM [rising, full curve, poor fit]

Cc1ccc(SCCC(=O)OCn2nnc3ccccc3c2=O)cc1
AC50 [2]: 20 µM [rising, partial curve, poor fit]

COC(=O)c1c(CSc2ccc(C)c(C)c2)noc1C(=O)NCc1ccc(OC)cc1
AC50 [1]: 11.2 µM [rising, single point]
AC50 [2]: 31.6 µM [rising, single point]

NC(=O)c1sc2nc(N3CCCCC3)c3c(c2c1N)CCCC3
AC50 [1]: 35.5 µM [rising, single point]

CCn1c(SCC(=O)N2CCCCC2C)nc2ccsc2c1=O (stereo unspecified)
AC50 [1]: 12.6 µM [rising, single point]
AC50 [2]: 14.1 µM [rising, single point]

CNC(=O)CCCN1C(=O)c2cccnc2Sc2ccccc21
AC50 [2]: 0.00501 µM [falling, full curve, poor fit]

Cc1csc(NC(=O)CCS(=O)(=O)c2ccc(Br)cc2)n1
AC50 [2]: 3.55 µM [rising, single point]

CCOc1cc(C(=O)NCCc2sc(-c3ccc(F)cc3)nc2C)cc(OCC)c1OCC
AC50 [1]: 3.16 µM [falling, full curve, poor fit]
AC50 [2]: 0.501 µM [falling, full curve, poor fit]

CC(C)=CCOc1c2ccoc2cc2oc(=O)ccc12
AC50 [2]: 31.6 µM [rising, single point]

O=S(=O)(NCCc1csc(-c2ccccc2)n1)c1ccc2c(c1)OCCO2
AC50 [2]: 35.5 µM [rising, single point]

COc1ccc(NC(=O)CCCC2CCCCC2)cc1S(=O)(=O)N1CCCCC1
AC50 [1]: 12.6 µM [rising, partial curve, poor fit]
AC50 [2]: 22.4 µM [rising, partial curve]

Cc1ccsc1CN1CCc2nc(Nc3ccccc3)ncc2C1
AC50 [1]: 31.6 µM [falling, single point]

CCOc1ccc(NS(=O)(=O)c2ccc(NC(=O)C3CCCO3)cc2)cc1 (stereo unspecified)
AC50 [2]: 31.6 µM [rising, single point]

O=C(COC(=O)c1ccccc1Cc1ccccc1)Nc1ccc(SC(F)F)cc1
AC50 [1]: 12.6 µM [rising, single point]
AC50 [2]: 15.8 µM [rising, partial curve]

CCc1nnc(NC(=O)CCC(=O)N2CCN(CCOc3ccc(C)cc3)CC2)s1
AC50 [1]: 15.8 µM [rising, partial curve]
AC50 [2]: 20 µM [rising, single point]

Cc1ccc(-c2cnc3cc(C)nn3c2)cc1
AC50 [2]: 0.501 µM [falling, full curve, poor fit]

O=C(/C=C/c1ccc(Cl)cc1Cl)c1ccc[nH]1
AC50 [2]: 35.5 µM [falling, single point]

CC(Sc1nncn1C)C(=O)Nc1ccc(S(N)(=O)=O)cc1 (stereo unspecified)
AC50 [1]: 0.0282 µM [rising, full curve, poor fit]

Cc1cc(C(=O)CN2C(=O)C(=O)N(Cc3ccccc3)C2=O)c(C)n1-c1ccccc1F
AC50 [2]: 5.62 µM [rising, full curve, poor fit]

S=C(Nc1ccc(N2CCOCC2)cc1)Nc1ccc2snnc2c1
AC50 [1]: 0.112 µM [rising, full curve, poor fit]

CC(=O)C1=C(C)N(Cc2ccccc2)C(=O)N[C@H]1c1cccc(F)c1
AC50 [1]: 0.794 µM [rising, partial curve]

COc1ccc(COCC(O)CN2CCC(CN3C(=O)c4cccc5cccc(c45)C3=O)CC2)cc1OC (stereo unspecified)
AC50 [1]: 14.1 µM [rising, partial curve, poor fit]
AC50 [2]: 35.5 µM [rising, partial curve]

c1ccc(Sc2ncnc3c2oc2ccccc23)nc1
AC50 [2]: 20 µM [rising, single point]

COc1ccc(CNC(=O)c2cc3c(=O)n(Cc4ccco4)ccc3nc2C)cc1
AC50 [1]: 2.82 µM [rising, full curve]
AC50 [2]: 4.47 µM [rising, partial curve]

CN1CCC(OC(c2ccccc2)c2ccccc2)CC1
AC50 [1]: 0.001 µM [falling, full curve, poor fit]

Brc1ccc2nc(-c3c[nH]c4ccccc34)cn2c1
AC50 [1]: 0.00447 µM [falling, full curve, poor fit]

Cc1cc(C)c(NC(=O)CCS(=O)(=O)c2cc3c(cc2Cl)NC(=O)CO3)c(C)c1
AC50 [1]: 3.55 µM [rising, partial curve]

O=C(N/N=C\c1cc(Br)ccc1O)c1ccc(S(=O)(=O)N2CCCCC2)cc1
AC50 [2]: 12.6 µM [rising, partial curve]

O=[N+]([O-])c1c(C(Cl)Cl)nn(-c2ccc(Cl)cc2)c1N1CCCCC1
AC50 [1]: 5.62 µM [falling, single point]
AC50 [2]: 4.47 µM [falling, single point]

CCCOc1cc(C)c(S(=O)(=O)N2CCOCC2)cc1C
AC50 [1]: 25.1 µM [rising, partial curve, poor fit]

Cc1ccc(Cc2c(C)nc3nc(SCC(=O)NC4CCC(C)CC4)nn3c2C)cc1 (stereo unspecified)
AC50 [1]: 12.6 µM [falling, partial curve, poor fit]
AC50 [2]: 22.4 µM [falling, partial curve, poor fit]

C=CCNC(=S)Nc1ccc2nsnc2c1
AC50 [1]: 3.16 µM [rising, partial curve]
AC50 [2]: 11.2 µM [rising, partial curve]

CCOC(=O)c1ccc2c(c1)N(CC(=O)N(C)c1ccccc1)C(=O)c1ccccc1S2
AC50 [2]: 10 µM [rising, single point]
